{"sequences": {"note": "By UniProt entry, the sequences of proteins in these tests, tags left out. Residues count along the entry.", "UniProt Q96RI0, 18-385": "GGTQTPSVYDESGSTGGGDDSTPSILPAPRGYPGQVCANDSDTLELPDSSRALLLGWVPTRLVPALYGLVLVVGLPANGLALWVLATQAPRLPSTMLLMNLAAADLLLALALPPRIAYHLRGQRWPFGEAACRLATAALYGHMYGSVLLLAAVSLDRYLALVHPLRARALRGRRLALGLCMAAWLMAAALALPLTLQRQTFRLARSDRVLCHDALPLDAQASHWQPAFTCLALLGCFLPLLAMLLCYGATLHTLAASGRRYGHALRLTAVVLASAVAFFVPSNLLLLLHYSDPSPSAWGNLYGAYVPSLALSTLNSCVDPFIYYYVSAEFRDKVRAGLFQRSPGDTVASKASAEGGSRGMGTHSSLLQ"}, "source": "patent US10047103B2", "about": "“Imidazothiadiazole and imidazopyrazine derivatives as protease activated receptor 4 (PAR4) inhibitors for treating platelet aggregation” (BRISTOL-MYERS SQUIBB COMPANY, priority 2012, dated 2018)", "origin": "cited, not measured here", "target": "protease-activated receptor type 4 (PAR4) (Homo sapiens (Human), UniProt Q96RI0)", "conditions": "abstract of Lee et al.; cited from earlier work", "note": "At least one structure is not confirmed: it was looked up by name or label, or the drawing left a doubt.", "data": [{"smiles": "CCOC(=O)c1ccc(-c2nn(Cc3ccccc3)c3ccccc23)cc1", "note": "[Compound 58]", "values": [{"measurement": "inhibition of PAR4-dependent platelet activation", "result": "selective and potent inhibitor"}]}]}
